These are yes or no findings as the source states them, for the method shown. Binding seen in cells or lysates may run through a third protein. Some binding calls cover weakened binding; strength is not graded here.
Assays:
[1] = molecular target: T1, Raftlin1 (mouse (endogenous in CD4+ T cells of C57BL/6 mice)) (UniProt Q6A0D4); assay: co-IP; endogenous proteins, lysate of CD4+ T cells from colonic lamina propria of SFB colonized mice; IP with anti-RORγt or anti-Raftlin1, immunoblot
T1 sequence: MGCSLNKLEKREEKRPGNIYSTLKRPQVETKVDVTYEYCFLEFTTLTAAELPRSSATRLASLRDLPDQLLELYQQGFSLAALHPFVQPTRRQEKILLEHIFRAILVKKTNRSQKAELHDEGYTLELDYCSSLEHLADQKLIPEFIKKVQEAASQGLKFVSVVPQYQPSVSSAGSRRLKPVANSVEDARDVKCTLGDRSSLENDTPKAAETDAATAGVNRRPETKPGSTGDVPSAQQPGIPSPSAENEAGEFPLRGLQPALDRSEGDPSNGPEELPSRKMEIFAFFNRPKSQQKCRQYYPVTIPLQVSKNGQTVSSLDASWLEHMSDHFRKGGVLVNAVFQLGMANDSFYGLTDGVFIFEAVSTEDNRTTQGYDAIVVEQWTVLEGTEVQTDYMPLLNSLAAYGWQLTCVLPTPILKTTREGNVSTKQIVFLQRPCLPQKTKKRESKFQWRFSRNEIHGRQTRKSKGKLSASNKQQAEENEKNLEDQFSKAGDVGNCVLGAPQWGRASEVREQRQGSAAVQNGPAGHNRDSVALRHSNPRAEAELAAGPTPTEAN

Sequences of proteins named here, by UniProt entry; tags and fusion partners are left off. A change or cut given only in a name is not applied to a line headed by its entry. A line that says so, or that is headed by a name, gives the form on record, which may keep a tag or linker.
RORγt (P51450-2, form named): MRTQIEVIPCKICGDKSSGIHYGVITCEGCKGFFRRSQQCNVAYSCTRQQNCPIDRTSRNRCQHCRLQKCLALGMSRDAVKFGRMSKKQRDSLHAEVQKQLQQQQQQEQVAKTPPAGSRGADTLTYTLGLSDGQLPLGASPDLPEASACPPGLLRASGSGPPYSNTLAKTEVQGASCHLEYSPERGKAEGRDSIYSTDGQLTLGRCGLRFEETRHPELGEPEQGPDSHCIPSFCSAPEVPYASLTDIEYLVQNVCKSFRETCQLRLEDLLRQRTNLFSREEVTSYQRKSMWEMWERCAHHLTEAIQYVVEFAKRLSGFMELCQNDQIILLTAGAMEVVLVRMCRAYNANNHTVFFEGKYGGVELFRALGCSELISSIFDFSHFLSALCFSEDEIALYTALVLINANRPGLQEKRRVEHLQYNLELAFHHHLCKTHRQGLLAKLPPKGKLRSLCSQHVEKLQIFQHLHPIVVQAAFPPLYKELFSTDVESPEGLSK

[2] = molecular target: T1, Raftlin1 (mouse (endogenous in CD4+ T cells of C57BL/6 mice)); assay: co-IP; endogenous proteins, lysate (NP-40 buffer) of CD4+ T cells from colonic lamina propria of C. rodentium infected mice (WT or Raftlin1^ΔLLNSL); IP with anti-RORγt or anti-Raftlin1, protein A/G beads, immunoblot

RORγt (from UniProt P51450-2 1-495)
binding [1]: no binding (condition: in SFB colonized mice) | binding [2]: binds

— paper PMC10435467
